Experimental data: PubChem BioAssay AID504791 (Drosophila RNAi Screening Center, 2011)

Aim: 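Factors in Argonaute-based small RNA production and activity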 (primary screen)
Cell system: Drosophila S2-derived reporter cells
Reagent: long dsRNA against Drosophila genes, about 150-250 ng dsRNA per well (siRNA assay); about 80-120 ng (miRNA assay)
Duration: about 5 days (siRNA assay); about 4 days (miRNA assay)
Challenge: copper sulfate induction of reporters: 25 µM (siRNA assay); 200 mM stated (miRNA assay), 1-2 days before reading
Read-out: 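Per-well ratio of Renilla over firefly light, expressed relative to that plate's average ratio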
Units: stable assay Renilla, run 1 in luminescence; stable assay firefly, run 1 in luminescence
Active means: 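First-pass picks had plate-scaled ratios over 1.5 for the siRNA assay, over 1.6 for the miRNA assay, or under 0.6; two distinct dsRNAs had to score alike on retest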
The deposit covers about 23,000 reagents; this is an unselected part of those with a known target gene and a result. Over the whole deposit, 199 (0.86%) were called active. 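Plate-scaled ratios behind the calls are not deposited; printed light signals are raw; many rows marked increased or decreased are still called inactive.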 Names joined by + are all predicted targets of the reagent. No sequences are given here. Not stated in the record: the direction of the score.

msps (mini spindles) [DRSC17004]: stable assay Renilla, run 1 = 10461; stable assay firefly, run 1 = 4.15e5; Outcome = inactive
Acsx3 (Acyl-CoA synthetase X3) [DRSC14309]: stable assay Renilla, run 1 = 8660; stable assay firefly, run 1 = 3.94e5; Outcome = inactive
CG14014 [DRSC02345]: stable assay Renilla, run 1 = 7235; stable assay firefly, run 1 = 5.42e5; Outcome = inactive
CG8545 [DRSC07210]: stable assay Renilla, run 1 = 6283; stable assay firefly, run 1 = 4.61e5; Outcome = inactive
CG17359 [DRSC10265]: stable assay Renilla, run 1 = 6554; stable assay firefly, run 1 = 3.71e5; Outcome = inactive
CG32409 [DRSC08780]: stable assay Renilla, run 1 = 6295; stable assay firefly, run 1 = 5.21e5; Outcome = inactive
Tmem63 (Transmembrane protein 63) [DRSC06063]: stable assay Renilla, run 1 = 6803; stable assay firefly, run 1 = 4.32e5; Outcome = inactive
fabp + sea [DRSC16114]: stable assay Renilla, run 1 = 8297; stable assay firefly, run 1 = 5.48e5; Outcome = inactive
fabp + sea [DRSC16115]: stable assay Renilla, run 1 = 8959; stable assay firefly, run 1 = 5.45e5; Outcome = inactive
Nop56 [DRSC14699]: stable assay Renilla, run 1 = 6692; stable assay firefly, run 1 = 3.26e5; Outcome = inactive
CG1317 [DRSC08305]: stable assay Renilla, run 1 = 8142; stable assay firefly, run 1 = 2.95e5; Outcome = inactive
CG34304 (retired record) [DRSC12810]: stable assay Renilla, run 1 = 5267; stable assay firefly, run 1 = 3.72e5; Outcome = inactive
CG5246 [DRSC15751]: stable assay Renilla, run 1 = 6699; stable assay firefly, run 1 = 3.68e5; Outcome = inactive

Copied from the listing, 2 entries:
CG8545 [DRSC07210]: stable assay Renilla, run 1 = 6283; stable assay firefly, run 1 = 4.61e5; Outcome = inactive
CG17359 [DRSC10265]: stable assay Renilla, run 1 = 6554; stable assay firefly, run 1 = 3.71e5; Outcome = inactive

Continued:
CG10132 [DRSC02013]: stable assay Renilla, run 1 = 45791; stable assay firefly, run 1 = 1.08e6; Outcome = inactive
CG17141 [DRSC15178]: stable assay Renilla, run 1 = 5675; stable assay firefly, run 1 = 2.64e5; Outcome = inactive
eIF4E3 (eukaryotic translation initiation factor 4E3) [DRSC10952]: stable assay Renilla, run 1 = 8410; stable assay firefly, run 1 = 4.98e5; Outcome = inactive
Gr23a (Gustatory receptor 23a) [DRSC00410]: stable assay Renilla, run 1 = 8946; stable assay firefly, run 1 = 4.83e5; Outcome = inactive
Ir48b (Ionotropic receptor 48b) [DRSC06320]: stable assay Renilla, run 1 = 6754; stable assay firefly, run 1 = 3.52e5; Outcome = inactive
Cpr47Ef (Cuticular protein 47Ef) [DRSC06336]: stable assay Renilla, run 1 = 5758; stable assay firefly, run 1 = 3.95e5; Outcome = inactive
Cpr47Ef (Cuticular protein 47Ef) [DRSC22450]: stable assay Renilla, run 1 = 3232; stable assay firefly, run 1 = 3.26e5; Outcome = inactive
TppII (Tripeptidyl-peptidase II) [DRSC07565]: stable assay Renilla, run 1 = 7636; stable assay firefly, run 1 = 4.40e5; Outcome = inactive
CG3909 [DRSC14150]: stable assay Renilla, run 1 = 4419; stable assay firefly, run 1 = 4.17e5; Outcome = inactive
Drsl3 (Drosomycin-like 3) [DRSC22630]: stable assay Renilla, run 1 = 2748; stable assay firefly, run 1 = 2.98e5; Outcome = inactive
Xpc (Xeroderma pigmentosum, complementation group C) [DRSC07654]: stable assay Renilla, run 1 = 11697; stable assay firefly, run 1 = 4.47e5; Outcome = inactive
CG32236 [DRSC08117]: stable assay Renilla, run 1 = 5427; stable assay firefly, run 1 = 4.22e5; Outcome = inactive
CG3635 [DRSC03729]: stable assay Renilla, run 1 = 6875; stable assay firefly, run 1 = 3.83e5; Outcome = inactive
Obp56f (Odorant-binding protein 56f) [DRSC22270]: stable assay Renilla, run 1 = 10031; stable assay firefly, run 1 = 7.58e5; Outcome = inactive
CG5440 [DRSC00685]: stable assay Renilla, run 1 = 7671; stable assay firefly, run 1 = 4.83e5; Outcome = inactive
